Reference: patent US11911228B2, “Aqueous solution for use in cleaning via irradiation by ultraviolet rays and/or near-ultraviolet visible light and/or light in 800-900 nm near-infrared region, dentifrice including said solution, dental treatment device, toothbrush, and tooth cleaning method” (Luke Co., Ltd., priority 2016, dated 2024)

OO [hydrogen peroxide]
generation of hydroxyl radical (0.1 M, 805 nm infrared ray): generation of the hydroxyl radical was observed | generation of hydroxyl radical (1M, 805 nm infrared ray): clearly generated | irradiation time for generating 10 μM of hydroxyl radical (805 nm infrared ray): ≥ 25 s | rate of hydroxyl radical increase after photoirradiation (805 nm infrared ray, linear increase): 2 μM per 10 seconds | hydroxyl radical contained before photoirradiation (before 805 nm photoirradiation): 5 µM

Read-outs that look alike come from different tables or passages of the source.
